Results are given in words; binding and its absence hold for the method and conditions named. Some binding calls cover weakened binding; strength is not graded here. Tags and fused reporters may be left off the sequences shown.
Key:
Assay in all cases: two-hybrid; mating-based split-ubiquitin system (mbSUS) in diploid yeast (THY.AP4 x THY.AP5); growth on CSM-LTUMAH without and with 50 μM Met, 72 h, 28°C; SNAP33 and SEC11 anchored via a GPI signal peptide
[1] = biological target: KAT1^E63A mutant, mbSUS fusion (Arabidopsis thaliana) (UniProt Q39128)
[2] = biological target: KC1 K^+ channel, full-length, split-ubiquitin (mbSUS) fusion (Arabidopsis thaliana) (UniProt P92960)
[3] = biological target: KAT1 K^+ channel, split-ubiquitin (mbSUS) fusion (Arabidopsis thaliana) (UniProt Q39128)

Amino acid sequences for entries named in this document (tags omitted). A change or cut given only in a name is not applied to a line headed by its entry.
UniProt Q39128: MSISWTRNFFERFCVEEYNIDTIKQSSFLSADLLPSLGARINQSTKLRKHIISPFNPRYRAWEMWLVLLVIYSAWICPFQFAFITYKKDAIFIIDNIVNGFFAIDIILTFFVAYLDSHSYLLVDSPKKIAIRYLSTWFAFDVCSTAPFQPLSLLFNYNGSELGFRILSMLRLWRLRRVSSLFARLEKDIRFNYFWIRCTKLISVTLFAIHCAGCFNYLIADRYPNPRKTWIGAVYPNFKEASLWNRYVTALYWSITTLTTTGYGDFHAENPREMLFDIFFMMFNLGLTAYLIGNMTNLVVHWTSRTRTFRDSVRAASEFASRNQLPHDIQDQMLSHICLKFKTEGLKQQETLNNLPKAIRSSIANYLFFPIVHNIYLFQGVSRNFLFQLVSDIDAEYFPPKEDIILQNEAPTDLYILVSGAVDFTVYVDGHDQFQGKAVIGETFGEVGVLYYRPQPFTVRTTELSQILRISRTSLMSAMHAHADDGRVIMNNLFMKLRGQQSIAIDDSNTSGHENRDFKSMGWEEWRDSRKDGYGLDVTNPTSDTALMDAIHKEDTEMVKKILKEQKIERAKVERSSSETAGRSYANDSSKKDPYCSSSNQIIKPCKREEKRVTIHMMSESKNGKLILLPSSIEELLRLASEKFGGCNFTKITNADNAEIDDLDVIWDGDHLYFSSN
UniProt P92960: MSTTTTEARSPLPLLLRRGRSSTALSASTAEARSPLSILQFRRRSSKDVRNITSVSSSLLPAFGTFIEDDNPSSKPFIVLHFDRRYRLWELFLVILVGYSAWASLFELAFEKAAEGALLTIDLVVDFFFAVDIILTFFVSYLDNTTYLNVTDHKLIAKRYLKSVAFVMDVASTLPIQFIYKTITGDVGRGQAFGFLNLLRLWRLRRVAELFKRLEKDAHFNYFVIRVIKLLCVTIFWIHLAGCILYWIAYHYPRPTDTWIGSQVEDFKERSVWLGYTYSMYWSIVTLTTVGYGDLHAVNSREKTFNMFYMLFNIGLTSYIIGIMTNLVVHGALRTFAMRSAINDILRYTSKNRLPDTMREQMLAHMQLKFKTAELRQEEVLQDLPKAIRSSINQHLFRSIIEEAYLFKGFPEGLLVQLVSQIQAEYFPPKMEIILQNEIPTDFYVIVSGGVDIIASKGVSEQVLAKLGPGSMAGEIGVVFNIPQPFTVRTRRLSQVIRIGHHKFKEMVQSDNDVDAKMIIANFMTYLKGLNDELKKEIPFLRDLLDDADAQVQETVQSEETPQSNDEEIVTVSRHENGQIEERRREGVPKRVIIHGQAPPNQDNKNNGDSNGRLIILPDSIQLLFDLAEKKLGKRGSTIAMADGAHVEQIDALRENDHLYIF

binding [1]: binds weakly | binding [2]: binds | binding [3]: binds
B1: SNAP33, GPI-anchored split-ubiquitin (mbSUS) fusion (protein, UniProt Q9S7P9 1-300)
chain: MFGLRKSPANLPKHNSVDLKSSKPNPFDSDDESDNKHTLNPSKRTTSEPSLADMTNPFGGERVQKGDSSSSKQSLFSNSKYQYKNNFRDSGGIENQSVQELEGYAVYKAEETTKSVQGCLKVAEDIRSDATRTLVMLHDQGEQITRTHHKAVEIDHDLSRGEKLLGSLGGMFSKTWKPKKTRPINGPVVTRDDSPTRRVNHLEKREKLGLNSAPRGQSRTREPLPESADAYQRVEMEKAKQDDGLSDLSDILGELKNMAVDMGSEIEKQNKGLDHLHDDVDELNFRVQQSNQRGRRLLGK

— article PMC6836825, “K^+ Channel-SEC11 Binding Exchange Regulates SNARE Assembly for Secretory Traffic^1” (Plant Physiology, 2019)
